PubChem BioAssay AID686943 – Drosophila RNAi Screening Center | 2013

Purpose: 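Fly genes whose loss alters ERK activation after insulin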 (primary screen)
System: Drosophila S2R+ haemocyte-like cells expressing YFP-tagged ERK (Rolled)
Reagents: long dsRNA against Drosophila genes
Challenge: insulin stimulation versus unstimulated cells; dose and duration not given
Measured: 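Per-plate z-scores of phospho-ERK immunostaining normalised to YFP-tagged ERK, measured with and without insulin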
Reading the numbers: replicate 1, z-score of dpERK with insulin and replicate 2, z-score of dpERK with insulin: higher = more active ERK per ERK-YFP after insulin
The screen tested about 23,000 reagents; shown is a random part of those with a known target gene and a result. 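Extra replicates exist only for a retested subset of genes; insulin dose and duration not given; both raised and lowered dpERK matter.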 Not all columns of the deposit are shown. Not stated in the record: the amount of reagent, the time to read-out.

fry [DRSC08993] — replicate 1, z-score of dpERK with insulin: 0.45; replicate 2, z-score of dpERK with insulin: 0.73
fry [DRSC10172] — replicate 1, z-score of dpERK with insulin: -0.84; replicate 2, z-score of dpERK with insulin: -0.98
fry [DRSC10709] — replicate 1, z-score of dpERK with insulin: -0.63; replicate 2, z-score of dpERK with insulin: -0.98
fry [DRSC10712] — replicate 1, z-score of dpERK with insulin: -0.62; replicate 2, z-score of dpERK with insulin: -2.45
fok [DRSC02103] — replicate 1, z-score of dpERK with insulin: 1.04; replicate 2, z-score of dpERK with insulin: -0.37
flfl [DRSC16474] — replicate 1, z-score of dpERK with insulin: -1.64; replicate 2, z-score of dpERK with insulin: -2.5
mys [DRSC18799] — replicate 1, z-score of dpERK with insulin: 0.34; replicate 2, z-score of dpERK with insulin: 0.26
side-V [DRSC04188] — replicate 1, z-score of dpERK with insulin: 0.09; replicate 2, z-score of dpERK with insulin: 0.04
side-V [DRSC04189] — replicate 1, z-score of dpERK with insulin: -1.27; replicate 2, z-score of dpERK with insulin: -1.02
side-V [DRSC22266] — replicate 1, z-score of dpERK with insulin: -1.85; replicate 2, z-score of dpERK with insulin: -1.59
Ntan1 [DRSC07546] — replicate 1, z-score of dpERK with insulin: 0.44; replicate 2, z-score of dpERK with insulin: 1.49
CtsB [DRSC19361] — replicate 1, z-score of dpERK with insulin: 0.14; replicate 2, z-score of dpERK with insulin: -0.28
Lkb1 [DRSC16481] — replicate 1, z-score of dpERK with insulin: -0.02; replicate 2, z-score of dpERK with insulin: 0.05
CG2871 [DRSC18230] — replicate 1, z-score of dpERK with insulin: 1.14; replicate 2, z-score of dpERK with insulin: 0.27
CG2871 [DRSC21719] — replicate 1, z-score of dpERK with insulin: -0.06; replicate 2, z-score of dpERK with insulin: -0.09
CG18549 [DRSC15347] — replicate 1, z-score of dpERK with insulin: -0.39; replicate 2, z-score of dpERK with insulin: -0.22
CG13659 [DRSC14660] — replicate 1, z-score of dpERK with insulin: 0.87; replicate 2, z-score of dpERK with insulin: -0.28
lncRNA:CR32027 [DRSC09571] — replicate 1, z-score of dpERK with insulin: -0.45; replicate 2, z-score of dpERK with insulin: 0.67
Rfx [DRSC16820] — replicate 1, z-score of dpERK with insulin: -0.4; replicate 2, z-score of dpERK with insulin: -0.11
CG34033 [DRSC05190] — replicate 1, z-score of dpERK with insulin: -0.2; replicate 2, z-score of dpERK with insulin: -0.67
CG13113 [DRSC02211] — replicate 1, z-score of dpERK with insulin: -0.28; replicate 2, z-score of dpERK with insulin: -0.13
CG7857 [DRSC10925] — replicate 1, z-score of dpERK with insulin: 0.37; replicate 2, z-score of dpERK with insulin: 0.84
CG10344 [DRSC04066] — replicate 1, z-score of dpERK with insulin: 1.55; replicate 2, z-score of dpERK with insulin: -0.27
Gen [DRSC09679] — replicate 1, z-score of dpERK with insulin: -0.23; replicate 2, z-score of dpERK with insulin: 0.28
Eip78C [DRSC11864] — replicate 1, z-score of dpERK with insulin: -3.23; replicate 2, z-score of dpERK with insulin: -2.46
kl-5 (retired record) [DRSC20707] — replicate 1, z-score of dpERK with insulin: -0.25; replicate 2, z-score of dpERK with insulin: -0.01
kl-5 (retired record) [DRSC20736] — replicate 1, z-score of dpERK with insulin: 0.34; replicate 2, z-score of dpERK with insulin: 0.39
kl-5 (retired record) [DRSC20773] — replicate 1, z-score of dpERK with insulin: -0.85; replicate 2, z-score of dpERK with insulin: 0.7
kl-5 (retired record) [DRSC21161] — replicate 1, z-score of dpERK with insulin: -0.01; replicate 2, z-score of dpERK with insulin: 0.32
Taf12L [DRSC00467] — replicate 1, z-score of dpERK with insulin: -0.07; replicate 2, z-score of dpERK with insulin: 0.79
Osi7 [DRSC12176] — replicate 1, z-score of dpERK with insulin: -0.18; replicate 2, z-score of dpERK with insulin: 0.15
CG7130 [DRSC11797] — replicate 1, z-score of dpERK with insulin: 0.65; replicate 2, z-score of dpERK with insulin: 0.35
CG30380 [DRSC05069] — replicate 1, z-score of dpERK with insulin: -0.58; replicate 2, z-score of dpERK with insulin: -0.05
inaF-A [DRSC19660] — replicate 1, z-score of dpERK with insulin: 0.07; replicate 2, z-score of dpERK with insulin: -0.36
CG1513 [DRSC05194] — replicate 1, z-score of dpERK with insulin: -0.5; replicate 2, z-score of dpERK with insulin: -0.31
CG1513 [DRSC06553] — replicate 1, z-score of dpERK with insulin: -2.53; replicate 2, z-score of dpERK with insulin: -0.85
CG1513 [DRSC06554] — replicate 1, z-score of dpERK with insulin: 0.08; replicate 2, z-score of dpERK with insulin: 0.14
Cyp6d4 [DRSC16633] — replicate 1, z-score of dpERK with insulin: 1.5; replicate 2, z-score of dpERK with insulin: -0.19
CG14960 [DRSC08419] — replicate 1, z-score of dpERK with insulin: 0.32; replicate 2, z-score of dpERK with insulin: -0.17
CG42449 [DRSC18084] — replicate 1, z-score of dpERK with insulin: 0.65; replicate 2, z-score of dpERK with insulin: -0.09

Sorted by “replicate 1, z-score of dpERK with insulin” (high to low): some entries from above
kl-5 (retired record) [DRSC20736] — replicate 1, z-score of dpERK with insulin: 0.34; replicate 2, z-score of dpERK with insulin: 0.39
Gen [DRSC09679] — replicate 1, z-score of dpERK with insulin: -0.23; replicate 2, z-score of dpERK with insulin: 0.28
kl-5 (retired record) [DRSC20707] — replicate 1, z-score of dpERK with insulin: -0.25; replicate 2, z-score of dpERK with insulin: -0.01
kl-5 (retired record) [DRSC20773] — replicate 1, z-score of dpERK with insulin: -0.85; replicate 2, z-score of dpERK with insulin: 0.7
Eip78C [DRSC11864] — replicate 1, z-score of dpERK with insulin: -3.23; replicate 2, z-score of dpERK with insulin: -2.46
